Protein sequences can lack the tags named with them.
These sequences were tested against T1, FLP recombinase (Saccharomyces cerevisiae) (UniProt P03870) (assay: activity assay). Settings: mutant x wild-type FRT, below detection; binding not measured; protein in a lysate after overexpression; variant of wild-type FRT.
T1 sequence (looked up, limits assumed): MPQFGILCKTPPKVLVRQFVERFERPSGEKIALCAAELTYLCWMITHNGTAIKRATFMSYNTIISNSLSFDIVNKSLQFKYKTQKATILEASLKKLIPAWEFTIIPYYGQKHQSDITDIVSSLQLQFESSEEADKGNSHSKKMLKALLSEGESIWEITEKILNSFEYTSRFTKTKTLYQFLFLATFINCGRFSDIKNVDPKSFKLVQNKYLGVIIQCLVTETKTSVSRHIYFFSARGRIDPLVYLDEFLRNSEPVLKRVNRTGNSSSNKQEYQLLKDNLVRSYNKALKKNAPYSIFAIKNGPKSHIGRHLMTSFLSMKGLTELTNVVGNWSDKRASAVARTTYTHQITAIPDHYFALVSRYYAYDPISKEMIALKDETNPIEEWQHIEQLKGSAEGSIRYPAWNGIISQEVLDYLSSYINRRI

Activity on this sequence, < 0.2%:
TCGAGGACGTCGAAGTTCCTATACTATCTTGAGAATAGGAACTTCTCCGGAA / CTAGTTCCGGAGAAGTTCCTATTCTCAAGATAGTATAGGAACTTCGACGTCC [f2262 mutant FRT], TCGAGGACGTCGAAGTTCCTATACTATTTGAAGAATAGGAACTTCTCCGGAA / CTAGTTCCGGAGAAGTTCCTATTCTTCAAATAGTATAGGAACTTCGACGTCC [F3 mutant FRT], TCGAGGACGTCGAAGTTCCTATACTCTCTGGAGAATAGGAACTTCTCCGGAA / CTAGTTCCGGAGAAGTTCCTATTCTCCAGAGAGTATAGGAACTTCGACGTCC [f2161 mutant FRT], TCGAGGACGTCGAAGTTCCTATACTTTCTACAGAATAGGAACTTCTCCGGAA / CTAGTTCCGGAGAAGTTCCTATTCTGTAGAAAGTATAGGAACTTCGACGTCC [f72 mutant FRT]

Reference: patent publication US20060094111, “DNA containing variant FRT sequences” (published 2006)
